No constants are given. Whether binding was seen depends on the method and setting. Some binding calls cover weakened binding; strength is not graded here.

Sequences of proteins named here, by UniProt entry; tags and fusion partners are left off. A change or cut given only in a name is not applied to a line headed by its entry. A line that says so, or that is headed by a name, gives the form on record, which may keep a tag or linker. Residues count along the entry.
UniProt Q12884, residues 30-760: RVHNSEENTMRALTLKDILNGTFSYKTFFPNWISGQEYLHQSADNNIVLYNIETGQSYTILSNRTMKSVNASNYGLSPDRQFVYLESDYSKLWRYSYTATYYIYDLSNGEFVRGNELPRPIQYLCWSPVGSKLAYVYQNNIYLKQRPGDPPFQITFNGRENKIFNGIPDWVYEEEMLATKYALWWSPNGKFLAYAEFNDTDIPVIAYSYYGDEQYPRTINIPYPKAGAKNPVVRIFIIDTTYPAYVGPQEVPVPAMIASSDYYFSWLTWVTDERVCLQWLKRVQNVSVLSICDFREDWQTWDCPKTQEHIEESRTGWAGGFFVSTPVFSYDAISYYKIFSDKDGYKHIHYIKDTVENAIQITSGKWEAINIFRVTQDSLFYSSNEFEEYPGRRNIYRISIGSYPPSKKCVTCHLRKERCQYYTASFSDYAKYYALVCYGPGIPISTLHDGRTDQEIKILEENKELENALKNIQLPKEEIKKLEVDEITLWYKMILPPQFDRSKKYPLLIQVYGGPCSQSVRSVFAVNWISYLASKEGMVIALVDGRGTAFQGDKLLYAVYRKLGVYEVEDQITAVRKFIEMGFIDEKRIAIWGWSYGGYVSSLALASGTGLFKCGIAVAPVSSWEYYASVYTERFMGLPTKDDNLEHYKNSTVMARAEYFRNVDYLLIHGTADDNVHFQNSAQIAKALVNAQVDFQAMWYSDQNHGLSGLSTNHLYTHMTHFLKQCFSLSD
scribble planar cell polarity protein (SCRIB), pGADT7-SCRIB prey (Q14160-1, form named): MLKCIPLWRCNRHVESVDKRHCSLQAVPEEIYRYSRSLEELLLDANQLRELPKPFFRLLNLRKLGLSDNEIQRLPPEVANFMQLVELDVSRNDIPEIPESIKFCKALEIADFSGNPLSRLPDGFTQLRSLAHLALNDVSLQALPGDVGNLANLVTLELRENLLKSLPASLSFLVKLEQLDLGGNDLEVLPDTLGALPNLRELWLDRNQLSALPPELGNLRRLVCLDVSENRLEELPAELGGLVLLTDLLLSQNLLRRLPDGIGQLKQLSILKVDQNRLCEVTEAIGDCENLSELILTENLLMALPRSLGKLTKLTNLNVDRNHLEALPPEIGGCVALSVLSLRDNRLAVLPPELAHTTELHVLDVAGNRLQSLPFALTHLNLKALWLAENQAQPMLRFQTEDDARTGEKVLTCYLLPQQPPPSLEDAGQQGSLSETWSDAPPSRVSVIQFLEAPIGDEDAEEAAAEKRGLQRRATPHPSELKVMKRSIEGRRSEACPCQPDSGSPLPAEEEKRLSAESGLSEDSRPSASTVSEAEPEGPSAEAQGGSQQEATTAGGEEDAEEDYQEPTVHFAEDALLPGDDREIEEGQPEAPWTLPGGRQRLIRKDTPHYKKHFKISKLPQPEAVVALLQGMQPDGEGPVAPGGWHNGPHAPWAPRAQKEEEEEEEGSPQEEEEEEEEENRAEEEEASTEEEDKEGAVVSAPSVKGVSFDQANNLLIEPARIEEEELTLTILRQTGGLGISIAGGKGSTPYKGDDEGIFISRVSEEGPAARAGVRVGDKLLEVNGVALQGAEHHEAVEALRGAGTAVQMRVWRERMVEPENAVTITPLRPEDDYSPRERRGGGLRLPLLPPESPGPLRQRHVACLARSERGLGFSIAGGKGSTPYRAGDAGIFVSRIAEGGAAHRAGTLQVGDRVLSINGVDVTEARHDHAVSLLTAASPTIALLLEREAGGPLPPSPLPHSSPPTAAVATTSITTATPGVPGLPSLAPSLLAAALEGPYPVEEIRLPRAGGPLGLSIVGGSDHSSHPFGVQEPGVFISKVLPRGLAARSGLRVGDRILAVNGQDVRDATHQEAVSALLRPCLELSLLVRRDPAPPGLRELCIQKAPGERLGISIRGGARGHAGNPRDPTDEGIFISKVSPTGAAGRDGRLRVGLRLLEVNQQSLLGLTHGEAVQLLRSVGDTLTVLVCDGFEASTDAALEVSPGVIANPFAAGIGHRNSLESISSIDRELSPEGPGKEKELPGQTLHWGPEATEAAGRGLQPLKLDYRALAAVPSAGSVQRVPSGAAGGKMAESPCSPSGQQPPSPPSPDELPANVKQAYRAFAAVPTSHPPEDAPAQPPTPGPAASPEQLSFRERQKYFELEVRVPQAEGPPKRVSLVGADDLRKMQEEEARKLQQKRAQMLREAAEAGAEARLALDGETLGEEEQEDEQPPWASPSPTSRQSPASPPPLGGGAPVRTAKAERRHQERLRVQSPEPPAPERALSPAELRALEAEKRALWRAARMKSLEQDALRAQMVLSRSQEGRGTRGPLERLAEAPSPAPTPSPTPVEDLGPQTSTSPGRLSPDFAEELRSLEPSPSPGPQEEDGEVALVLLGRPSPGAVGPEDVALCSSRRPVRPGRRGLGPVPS

From publication PMC10448038 come the findings set out here.

This experiment addresses fibroblast activation protein (FAP), pGBKT7-FAP bait (UniProt Q12884). The experiment is described as follows: two-hybrid; bait pGBKT7-FAP, prey pGADT7-SCRIB; SD/-His/-Ade/-Trp/-Leu/X/A plates; alpha-galactosidase activity.

Take “scribble planar cell polarity protein (SCRIB), pGADT7-SCRIB prey (from UniProt Q14160-1 1-1630)”: the binding entry is reported as “binds”.
